The exact form of at least one protein or probe is not confirmed. The direction of at least one scale is not stated here.
Target: AtPHR1 MYB-CC Olig1 L319N,I333N,L337N (Arabidopsis thaliana) (UniProt Q94CL7)
Experiment: GCI
Conditions: 4 C, 300 mM NaCl; GCI at 4 C: AtPHR1 in 20 mM HEPES pH 7.5, 300 mM NaCl; OsPHR2 in 20 mM HEPES pH 7.9, 200 mM NaCl; recombinant protein; residues 222-358; protein details: His6 N-terminal, TEV-cleaved; label: 5'-biotin on strand 1

Protein sequences, listed by entry. Tags and fused reporters are not part of them. Residues count along the entry.
UniProt Q94CL7, 222-358 L319N/I333N/L337N: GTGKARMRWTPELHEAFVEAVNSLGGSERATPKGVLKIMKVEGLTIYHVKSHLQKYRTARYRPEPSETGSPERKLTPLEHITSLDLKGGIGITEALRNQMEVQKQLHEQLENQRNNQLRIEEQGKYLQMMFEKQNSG

CAGAGAAAAAAGGATATTCTAATTAGAAACCTTAAGAATATTCTTTTTAATCCC (double strand) [pAtSPX1 biotin]
binding signal (fold reduced affinity vs wild type): 20
